According to patent US7410639 (VEGENICS, dated 2008):
These are yes or no findings as the source states them, for the method shown. Some results given as binding are weak or reduced against the parent protein; the word gives no strength.

Chains of the proteins cited; added tags and fusions are not shown. Lines headed by an entry give the natural chain unless they say otherwise; changes in a name come on top.
UniProt P35918: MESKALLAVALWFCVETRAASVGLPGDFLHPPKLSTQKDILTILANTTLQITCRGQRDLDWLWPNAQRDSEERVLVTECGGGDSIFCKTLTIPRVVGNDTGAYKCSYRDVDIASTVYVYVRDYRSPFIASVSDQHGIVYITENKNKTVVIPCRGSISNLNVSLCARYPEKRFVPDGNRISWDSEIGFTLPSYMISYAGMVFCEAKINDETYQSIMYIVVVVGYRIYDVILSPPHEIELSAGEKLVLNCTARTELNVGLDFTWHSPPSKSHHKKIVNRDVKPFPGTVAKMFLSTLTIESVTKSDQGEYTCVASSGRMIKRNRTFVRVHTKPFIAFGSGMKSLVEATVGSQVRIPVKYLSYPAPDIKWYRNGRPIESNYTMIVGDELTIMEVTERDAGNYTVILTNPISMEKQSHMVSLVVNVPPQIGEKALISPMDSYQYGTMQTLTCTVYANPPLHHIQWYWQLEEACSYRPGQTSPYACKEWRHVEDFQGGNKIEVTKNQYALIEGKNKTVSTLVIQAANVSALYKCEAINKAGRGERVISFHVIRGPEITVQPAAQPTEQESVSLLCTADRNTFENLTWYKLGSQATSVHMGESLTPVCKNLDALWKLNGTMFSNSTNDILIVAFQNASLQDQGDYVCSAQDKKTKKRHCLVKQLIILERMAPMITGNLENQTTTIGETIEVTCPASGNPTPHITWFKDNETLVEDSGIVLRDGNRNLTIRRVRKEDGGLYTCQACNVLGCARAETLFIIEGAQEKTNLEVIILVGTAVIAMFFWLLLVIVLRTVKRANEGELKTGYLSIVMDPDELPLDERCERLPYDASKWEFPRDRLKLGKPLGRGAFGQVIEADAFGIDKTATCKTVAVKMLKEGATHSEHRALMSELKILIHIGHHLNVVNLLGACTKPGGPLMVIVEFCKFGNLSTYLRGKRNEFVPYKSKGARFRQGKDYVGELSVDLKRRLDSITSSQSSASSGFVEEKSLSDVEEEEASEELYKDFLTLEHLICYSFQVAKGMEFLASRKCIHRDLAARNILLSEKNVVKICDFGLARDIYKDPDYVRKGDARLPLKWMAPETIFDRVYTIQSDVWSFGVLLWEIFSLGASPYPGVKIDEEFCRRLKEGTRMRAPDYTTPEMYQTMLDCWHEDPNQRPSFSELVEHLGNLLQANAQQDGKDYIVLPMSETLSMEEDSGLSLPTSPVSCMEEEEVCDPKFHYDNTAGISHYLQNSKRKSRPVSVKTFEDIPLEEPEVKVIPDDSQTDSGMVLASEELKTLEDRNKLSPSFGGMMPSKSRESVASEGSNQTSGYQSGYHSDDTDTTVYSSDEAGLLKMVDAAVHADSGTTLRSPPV
UniProt P14753: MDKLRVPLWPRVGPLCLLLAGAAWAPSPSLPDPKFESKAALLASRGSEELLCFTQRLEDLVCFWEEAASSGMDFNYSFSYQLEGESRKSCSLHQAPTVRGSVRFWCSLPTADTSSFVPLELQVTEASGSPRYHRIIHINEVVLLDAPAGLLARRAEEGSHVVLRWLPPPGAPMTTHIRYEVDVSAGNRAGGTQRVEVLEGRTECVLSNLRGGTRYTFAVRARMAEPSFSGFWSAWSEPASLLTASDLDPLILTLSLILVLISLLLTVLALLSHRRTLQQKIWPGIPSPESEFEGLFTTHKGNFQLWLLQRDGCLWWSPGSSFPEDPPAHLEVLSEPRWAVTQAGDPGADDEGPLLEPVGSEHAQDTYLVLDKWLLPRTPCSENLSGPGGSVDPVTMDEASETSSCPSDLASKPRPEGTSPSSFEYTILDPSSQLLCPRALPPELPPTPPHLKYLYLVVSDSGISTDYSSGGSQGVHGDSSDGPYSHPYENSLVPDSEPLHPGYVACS
UniProt O43915: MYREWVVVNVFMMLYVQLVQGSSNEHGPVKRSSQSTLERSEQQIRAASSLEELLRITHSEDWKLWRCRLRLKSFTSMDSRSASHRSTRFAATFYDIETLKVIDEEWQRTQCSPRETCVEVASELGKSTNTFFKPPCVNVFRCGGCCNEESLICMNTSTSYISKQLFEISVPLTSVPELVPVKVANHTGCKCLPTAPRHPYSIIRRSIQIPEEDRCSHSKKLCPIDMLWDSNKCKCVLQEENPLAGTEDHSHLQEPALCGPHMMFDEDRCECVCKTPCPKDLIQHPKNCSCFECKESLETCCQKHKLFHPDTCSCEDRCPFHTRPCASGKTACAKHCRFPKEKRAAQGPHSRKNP

Biological target: VEGFR2-EpoR chimeric receptor (mouse VEGFR2 extracellular domain with mouse EpoR transmembrane and cytoplasmic domains) on Ba/F3-NYK-EpoR cells (mouse) (UniProt P35918+P14753)
Assay: Ba/F3 VEGFR2-EpoR survival bioassay (binding inferred from cell rescue)

Q: “human VEGF-D (from UniProt O43915 22-354) (ligand)” was tested. Which binding did it give?
A: binds
